The full ranking holds about 1,100 compounds; the median of “Wnt reporter firefly/Renilla luciferase ratio relative to plate median” is about 1.1, and the highest 2% start at about 1.6. The list shows a part of the results, in another mix than the full data.
Tested on: HEK293T (UBE3A T485A transfected, BAR Wnt reporter)
Assay: Wnt reporter firefly/Renilla luciferase ratio relative to plate median (fold (linear ratio)); higher = more Wnt/beta-catenin reporter activation
Conditions: 24 h
How it was run: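 HEK293T cells carrying a transfected BAR firefly luciferase Wnt reporter, TK-Renilla and an expression plasmid were exposed to chemicals at 0.01–100 uM for 24 h, with dosing four hours after transfection. Readout used Dual-Glo luciferase. The firefly/Renilla ratio defined Wnt activity and raw Renilla defined cell health, each median-centred per plate. Figures are means of four biological replicates.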

SMILES | Wnt reporter firefly/Renilla luciferase ratio (concentration: 0.01 uM) | Wnt reporter firefly/Renilla luciferase ratio (concentration: 0.1 uM) | Wnt reporter firefly/Renilla luciferase ratio (concentration: 1 uM) | Wnt reporter firefly/Renilla luciferase ratio (concentration: 10 uM) | Wnt reporter firefly/Renilla luciferase ratio (concentration: 100 uM)
CCCC(CCC)C(=O)O [Valproic acid] | 1.2 | 0.995 | 1.01 | 1.14 | 1.69
O=C(O)CCCCC(=O)O [Hexanedioic acid] | – | 1.24 | 1.34 | 1.58 | 1.41
OC12N=C(c3ccccc3)SC1Cc1cc(Cl)ccc12 (stereo not drawn) | – | 1.17 | 1.22 | 1.11 | 0.457
C[C@]12CC[C@@H]3c4ccc(O)cc4C[C@@H](CCCCCCCCCS(=O)CCCC(F)(F)C(F)(F)F)[C@H]3[C@@H]1CC[C@@H]2O (stereo partly drawn) [Fulvestrant] | – | 1.27 | 0.905 | 1.14 | 0.933
CCNc1nc(N)nc(Cl)n1 [Deisopropylatrazine] | 1.05 | 0.972 | 0.965 | 1.5 | 0.426
C=CN1CCCC1=O [N-Vinyl-2-pyrrolidone] | – | 1.12 | 1.18 | 1.21 | 1.04
CCCCOC(=O)CCCCCCCCC(=O)OCCCC [Dibutyl decanedioate] | – | 0.951 | 0.896 | 0.802 | 2.33
OCC(O)CO [Glycerol] | – | 1.1 | 0.905 | 1.05 | 1.04
CCCCOC(=O)[C@@H](C)Oc1ccc(Oc2ccc(C(F)(F)F)cn2)cc1 [Fluazifop-P-butyl] | – | – | – | – | 1.67
Cc1ccc(C(C)C)c(O)c1 [Thymol] | – | 0.988 | 1.09 | 1.29 | 1.08
NC(=O)Cn1c(=O)cc(CCN2CCN(c3nccc4sccc34)CC2)c2ccc(F)cc21 [Trelanserin] | – | 1.25 | 1.08 | 1.23 | 1.07
CCn1nc(C)c2c1C(=O)NCC(c1ccc(O)cc1)=N2 | – | 1.05 | 0.921 | 1.11 | 0.603
O=C1OC(c2ccc(O)cc2)(c2ccc(O)cc2)c2ccccc21 [Phenolphthalein] | – | 1.15 | 0.934 | 1.19 | –
CCN(CC)C(=S)SSC(=S)N(CC)CC [Disulfiram] | – | 1.06 | 0.747 | 0.832 | 0.235
COc1cc(S(=O)(=O)[O-])c(C)cc1/N=N/c1c(O)ccc2cc(S(=O)(=O)[O-])ccc12.[Na+].[Na+] | – | 1.19 | 1 | 1.45 | 2.21
NC=O [Formamide] | – | 1.2 | 1.2 | 1.16 | 1.09
OCc1ccccc1 [Benzyl alcohol] | – | 1.29 | 0.923 | 1.03 | 1.49
O=N[O-].[Na+] [Sodium nitrite] | – | 1.13 | 0.943 | 1.4 | 1.29
Nc1ccc(Nc2ccccc2)cc1 [N-Phenyl-1,4-benzenediamine] | – | 1.37 | 0.895 | 0.885 | 0.13
CC(C)c1ccc(C(=O)N=C(N)N)cc1S(C)(=O)=O.CS(=O)(=O)O [Cariporide mesylate] | – | 1.05 | 1.35 | 1.03 | 0.932
O=C(CCCCCCCCc1cccnc1)N1CCC(C=C(c2ccccc2)c2ccccc2)CC1 | – | 1.18 | 0.837 | 1.23 | 0.852
CCCCCCc1ccc(O)cc1O [4-Hexylresorcinol] | – | 0.958 | 1 | 0.876 | –

SMILES | Wnt reporter firefly/Renilla luciferase ratio (concentration: 0.01 uM) | Wnt reporter firefly/Renilla luciferase ratio (concentration: 0.1 uM) | Wnt reporter firefly/Renilla luciferase ratio (concentration: 1 uM) | Wnt reporter firefly/Renilla luciferase ratio (concentration: 10 uM) | Wnt reporter firefly/Renilla luciferase ratio (concentration: 100 uM)
CC=Cc1ccc(O)c(OC)c1 [Isoeugenol] | – | 0.93 | 1.02 | 1.04 | 0.677
CS(=O)(=O)OCCCCOS(C)(=O)=O [Busulfan] | – | 0.922 | 1.13 | 1.22 | 1.11
CCC(C)(C)C(=O)O[C@H]1C[C@@H](C)C=C2C=C[C@H](C)[C@H](CC[C@@H]3C[C@@H](O)CC(=O)O3)[C@H]21 [Simvastatin] | – | 1.08 | 0.9 | 0.905 | 0.689
O=c1ccc2ccccc2o1 [Coumarin] | – | 0.953 | 1.2 | 1.07 | 1.05
COCCOC[C@H](CC1(C(=O)N[C@H]2CC[C@@H](C(=O)O)CC2)CCCC1)C(=O)Oc1ccc2c(c1)CCC2 [Candoxatril] | – | 1.15 | 1.05 | 1 | 0.894
CC/C(=C(\c1ccccc1)c1ccc(OCCN(C)C)cc1)c1ccccc1 [Tamoxifen] | – | 1.04 | 0.926 | 1.02 | 0.288
CSC(=O)c1cccc2nnsc12 [Acibenzolar-S-methyl] | 0.853 | 0.92 | 0.985 | 0.879 | 1.58
CCCCC(CC)C(=O)OCCOCCOCCOC(=O)C(CC)CCCC (stereo not drawn) [Triethylene glycol bis(2-ethylhexanoate)] | – | 0.896 | 0.908 | 0.965 | 1.43
Cc1cc(NC(=O)C(=O)O)cc(C)c1Oc1ccc(O)c2c1CCC2 | – | 0.867 | 0.945 | 1 | 0.848
CNCc1ccc(NC(=O)c2c[nH]c3c2C(=O)CCC3)cc1 | – | 1.24 | 1.06 | 1.69 | 0.318
OCCC(F)(F)C(F)(F)C(F)(F)C(F)(F)C(F)(F)C(F)(F)C(F)(F)C(F)(F)F [1,1,2,2-Tetrahydroperfluoro-1-decanol] | – | 1.3 | 0.898 | 1.2 | 1.28
Nc1ccc2c(c1)C(=O)c1ccccc1C2=O [2-Aminoanthraquinone] | – | 1.06 | 1.2 | 1.28 | 1.58
O=C(O)c1cccc(C(=O)O)c1 [1,3-Benzenedicarboxylic acid] | – | 1.21 | 1.28 | 1.24 | 1.02
O=[Si]=O [Silica] | – | 1.49 | 1.17 | 1.18 | 1.52
CC(C)CC(C)O (stereo not drawn) [4-Methyl-2-pentanol] | – | 0.96 | 1.03 | 1.3 | 1.28
NC1CCCCC1 [Cyclohexylamine] | – | 0.893 | 0.987 | 0.752 | 1.05
O=C(O)c1ccccc1 [Benzoic acid] | – | 1.19 | 0.956 | 0.996 | 1.03
COc1ccc2cc(S(=O)(=O)NC(CC(=O)NC(Cc3ccc(CN4C(C)CCCC4C)cc3)C(=O)N(C)C(C)C)c3ccc4c(c3)OCO4)ccc2c1.Cl (stereo not drawn) | – | 0.876 | 1.09 | 0.743 | –
CC1(C)NC(=O)NC1=O [5,5-Dimethylhydantoin] | – | 0.947 | 1.13 | 1.16 | 0.985
CCCc1cc(=O)[nH]c(=S)[nH]1 [6-Propyl-2-thiouracil] | – | 0.769 | 0.693 | 0.757 | 0.709
COc1cc(C(C)C)c2c(c1)S(=O)(=O)N(COc1cc(=O)n3cccc(OCCN4CCCCC4)c3n1)C2=O | – | 0.875 | 0.787 | 0.903 | 0.835
COCCO [2-Methoxyethanol] | 0.891 | 0.833 | 0.983 | 1.13 | 1.58

Eleven entries already listed, sorted by molar mass, largest number first:
SMILES | Wnt reporter firefly/Renilla luciferase ratio (concentration: 0.01 uM) | Wnt reporter firefly/Renilla luciferase ratio (concentration: 0.1 uM) | Wnt reporter firefly/Renilla luciferase ratio (concentration: 1 uM) | Wnt reporter firefly/Renilla luciferase ratio (concentration: 10 uM) | Wnt reporter firefly/Renilla luciferase ratio (concentration: 100 uM)
NC(=O)Cn1c(=O)cc(CCN2CCN(c3nccc4sccc34)CC2)c2ccc(F)cc21 [Trelanserin] | – | 1.25 | 1.08 | 1.23 | 1.07
CCCCC(CC)C(=O)OCCOCCOCCOC(=O)C(CC)CCCC (stereo not drawn) [Triethylene glycol bis(2-ethylhexanoate)] | – | 0.896 | 0.908 | 0.965 | 1.43
O=C1OC(c2ccc(O)cc2)(c2ccc(O)cc2)c2ccccc21 [Phenolphthalein] | – | 1.15 | 0.934 | 1.19 | –
CS(=O)(=O)OCCCCOS(C)(=O)=O [Busulfan] | – | 0.922 | 1.13 | 1.22 | 1.11
CCCCCCc1ccc(O)cc1O [4-Hexylresorcinol] | – | 0.958 | 1 | 0.876 | –
CCNc1nc(N)nc(Cl)n1 [Deisopropylatrazine] | 1.05 | 0.972 | 0.965 | 1.5 | 0.426
CCCc1cc(=O)[nH]c(=S)[nH]1 [6-Propyl-2-thiouracil] | – | 0.769 | 0.693 | 0.757 | 0.709
O=c1ccc2ccccc2o1 [Coumarin] | – | 0.953 | 1.2 | 1.07 | 1.05
C=CN1CCCC1=O [N-Vinyl-2-pyrrolidone] | – | 1.12 | 1.18 | 1.21 | 1.04
OCc1ccccc1 [Benzyl alcohol] | – | 1.29 | 0.923 | 1.03 | 1.49
COCCO [2-Methoxyethanol] | 0.891 | 0.833 | 0.983 | 1.13 | 1.58

Next compounds follow:

SMILES | Wnt reporter firefly/Renilla luciferase ratio (concentration: 0.01 uM) | Wnt reporter firefly/Renilla luciferase ratio (concentration: 0.1 uM) | Wnt reporter firefly/Renilla luciferase ratio (concentration: 1 uM) | Wnt reporter firefly/Renilla luciferase ratio (concentration: 10 uM) | Wnt reporter firefly/Renilla luciferase ratio (concentration: 100 uM)
NCCOCCOCCN [2,2'-[Ethane-1,2-diylbis(oxy)]diethanamine] | – | 1.6 | 0.964 | 1.12 | 1.13
OCCC(F)(F)C(F)(F)C(F)(F)C(F)(F)C(F)(F)C(F)(F)F [3,3,4,4,5,5,6,6,7,7,8,8,8-Tridecafluorooctan-1-ol] | – | 1.36 | 0.849 | 1.08 | 0.998
Cc1oc2c(NC(=O)c3c(Cl)cccc3Cl)cccc2c1C(C)(C)O | – | 1.01 | 1.14 | 0.7 | –
CC(C)(C)c1cc(O)c(C(C)(C)C)cc1O [2,5-Di-tert-butylbenzene-1,4-diol] | – | 1.14 | 0.988 | 1.13 | –
COc1ccc(/C=C/S(=O)(=O)[N-]C(=O)c2ccc(C)cc2Cl)cc1.[Na+] | – | 1.08 | 1.09 | 1.13 | 0.437
O=C([O-])c1ccccc1.[Na+] [Sodium benzoate] | – | 1 | 1.12 | 0.968 | 1.45
CCCCCCCCCC [Decane] | – | 1.01 | 0.915 | 1.09 | 1.08
C1N2CN3CN1CN(C2)C3 [Methenamine] | – | 1.17 | 1.16 | 1.23 | 1.71
COc1cc(/C=C/C(=O)CC(=O)/C=C/c2ccc(O)c(OC)c2)ccc1O [Curcumin] | 1.1 | 0.875 | 1.1 | 0.69 | –
OC[C@@H](O)[C@@H](O)[C@H](O)[C@H](O)CO [D-Mannitol] | – | 1.05 | 1.23 | 1.07 | 1.39
O=C([O-])c1[nH]n(-c2ccc(S(=O)(=O)[O-])cc2)c(=O)c1/N=N/c1ccc(S(=O)(=O)[O-])cc1.[Na+].[Na+].[Na+] [FD&C Yellow 5] | – | – | – | – | 1.86
O=C1O[C@H]([C@@H](O)CO)C([O-])=C1O.[Na+] [Sodium L-ascorbate] | – | 1.1 | 1.07 | 1.35 | 1.21
Nc1nc(N)c2nc(CNc3ccc(C(=O)N[C@@H](CCC(=O)O)C(=O)O)cc3)cnc2n1 [4-Aminofolic acid] | – | 1.15 | 0.975 | 0.259 | 0.385
COC(=O)CCC(=O)OC [Dimethyl succinate] | – | 1.02 | 1.01 | 1.13 | 1.29
Cc1ccc2oc(CN(Cc3ccccc3)C(=O)Nc3c(F)cc(F)cc3F)c(-c3ccc(Cl)cc3)c2c1 | – | 1.24 | 1.21 | 1.07 | 0.909
C[C@]12CC[C@@H]3c4ccc(O)cc4CC[C@H]3[C@@H]1CC[C@@H]2O [17beta-Estradiol] | – | 0.999 | 0.932 | 0.591 | –
CCC(C)=NO [2-Butanone oxime] | – | 1 | 0.928 | 1.1 | 1.33
Cc1ccc(N(C)C)cc1 [N,N,4-Trimethylaniline] | – | 1.08 | 1.2 | 1.06 | 0.933
Cc1ccc(C(C)C)cc1 [p-Cymene] | – | 1.31 | 1.11 | 1.1 | 1.52
CCC1(O)C(=O)OCc2c1cc1n(c2=O)Cc2cc3c(CN(C)C)c(O)ccc3nc2-1 (stereo not drawn) [Topotecan] | 0.888 | 0.488 | 0.629 | 0.537 | 0.228
CCCOC(=O)c1cc(O)c(O)c(O)c1 [Propyl gallate] | – | 1.13 | 1.01 | 0.936 | 0.729

Reference: the supplement of paper PMC9254222
